{"sequences": {"note": "Chains of the proteins cited; added tags and fusions are not shown.", "UniProt P05556": "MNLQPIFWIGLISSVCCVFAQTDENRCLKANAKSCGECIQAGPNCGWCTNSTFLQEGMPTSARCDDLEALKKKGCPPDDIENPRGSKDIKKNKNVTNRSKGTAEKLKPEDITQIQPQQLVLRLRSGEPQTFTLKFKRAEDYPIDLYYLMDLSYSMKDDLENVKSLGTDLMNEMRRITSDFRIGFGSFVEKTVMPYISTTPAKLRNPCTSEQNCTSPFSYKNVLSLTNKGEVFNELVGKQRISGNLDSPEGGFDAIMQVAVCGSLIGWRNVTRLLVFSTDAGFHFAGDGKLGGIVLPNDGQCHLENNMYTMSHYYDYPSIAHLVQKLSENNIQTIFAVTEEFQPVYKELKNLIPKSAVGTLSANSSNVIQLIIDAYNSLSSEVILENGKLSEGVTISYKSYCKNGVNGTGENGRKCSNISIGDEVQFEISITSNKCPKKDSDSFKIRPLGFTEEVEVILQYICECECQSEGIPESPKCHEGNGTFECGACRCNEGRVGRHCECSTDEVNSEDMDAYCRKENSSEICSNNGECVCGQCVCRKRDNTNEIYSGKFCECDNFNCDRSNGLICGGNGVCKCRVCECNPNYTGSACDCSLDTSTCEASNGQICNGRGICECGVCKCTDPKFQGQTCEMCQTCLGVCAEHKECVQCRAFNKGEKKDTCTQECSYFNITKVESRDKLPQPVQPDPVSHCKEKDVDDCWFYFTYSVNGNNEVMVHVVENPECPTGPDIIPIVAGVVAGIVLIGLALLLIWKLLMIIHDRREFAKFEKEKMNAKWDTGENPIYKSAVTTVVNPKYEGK"}, "source": "paper PMC7295765", "binders": {"B1": {"name": "Wnt-induced signaling protein 1 (WISP1) (ligand, UniProt O95388 23-367)", "chain": "TALSPAPTTMDFTPAPLEDTSSRPQFCKWPCECPPSPPRCPLGVSLITDGCECCKMCAQQLGDNCTEAAICDPHRGLYCDYSGDRPRYAIGVCAQVVGVGCVLDGVRYNNGQSFQPNCKYNCTCIDGAVGCTPLCLRVRPPRLWCPHPRRVSIPGHCCEQWVCEDDAKRPRKTAPRDTGAFDAVGEVEAWHRNCIAYTSPWSPCSTSCGLGVSTRISNVNAQCWPEQESRLCNLRPCDVDIHTLIKAGKKCLAVYQPEASMNFTLAGCISTRSYQPKYCGVCMDNRCCIPYKSKTIDVSFQCPDGLGFSRQVLWINACFCNLSCRNPNDIFADLESYPDFSEIAN"}}, "target": "Integrin β1 (human (endogenous in T4121 and T387 GSCs)) (UniProt P05556)", "test": "co-IP; lysates of T4121 or T387 GSCs transduced with WISP1 overexpression lentivirus; IP lysis buffer (50 mM Tris-HCl pH 7.8, 137 mM NaCl, 1 mM EDTA, 1% Triton X-100, 10% glycerol); IP with anti-Integrin α6 or anti-Integrin β1 antibody or isotype IgG overnight at 4 °C, protein A/G Plus agarose; immunoblot with anti-WISP1, anti-Integrin α6 and anti-Integrin β1", "note": "Results are given in words; binding and its absence hold for the method and conditions named. Binding seen in cells or lysates may run through a third protein. Some entries that bind do so weakly or less than the wild type."}
{"binder": "B1", "values": [{"measurement": "binding", "result": "binds"}]}
